The target of this assay is HLA-A*0201 (human). Put plainly: UV-ligand exchange; anti-b2m ELISA. A general note: An ELISA detects its analyte on a solid surface through an enzyme-linked reagent.

No constants are given. Whether binding was seen depends on the method and setting. A result given as binding can be weak or reduced; the word gives no strength. Tags and fused reporters may be left off the sequences shown.

B1: SERPINB3-001 (peptide)
peptide: KLFGEKTYL
For B1, the binding result is “binds”.

B2: DROSHA-001 (peptide)
peptide: AVVEFLTSV
Regarding B2, the binding entry is reported as “binds”.

B3: ADAM8-001 (peptide)
peptide: KLLTEVHAA
With B3, the binding entry is given as “binds”.

B4: EEF2-002 (peptide)
peptide: GLAEDIDKGEV
Turning to B4, the binding result was “binds”.

B5: RCC1-001 (peptide)
peptide: TLISRLPAV
In the case of B5, the binding result is on record as “binds”.

B6: RNF213-001 (peptide)
peptide: VLSVVEVTL
As to B6, the binding result is “binds”.

B7: NET1-001 (peptide)
peptide: ILVSWLPRL
As to B7, the binding result is “binds”.

B8: VPS13B-001 (peptide)
peptide: SLWGGDVVL
Consider B8, for which the binding result is given as “binds”.

B9: GALNT2-001 (peptide)
peptide: ALLRTVVSV
B9: the binding entry is “binds”.

B10: CEP250-002 (peptide)
peptide: ALWEKNTHL
Turning to B10, the binding entry was “binds”.

B11: NCBP1-001 (peptide)
peptide: AMFENFVSV
Consider B11, for which the binding result is listed as “binds”.

B12: RGS4-001 (peptide)
peptide: KIYNEFISV
Regarding B12, the binding entry was “binds”.

B13: CEP192-001 (peptide)
peptide: SLFGNSGILENV
In the case of B13, the binding result is recorded as “binds”.

B14: THY1-001 (peptide)
peptide: SLLAQNTSWLL
As for B14, the binding result was “binds”.

B15: STAT2-001 (peptide)
peptide: SLLPVDIRQYL
Take B15: the binding entry is “binds”.

B16: ABCA13-002 (peptide)
peptide: ALDENLHQL
For the molecule B16, the binding entry is “binds”.

B17: HNRNPH-001 (peptide)
peptide: SMSGYDQVL
As to B17, the binding result is on record as “binds”.

B18: CNOT1-001 (peptide)
peptide: YLAPFLRNV
For B18, the binding entry is recorded as “binds”.

B19: GFPT2-001 (peptide)
peptide: AIDGNNHEV
Regarding B19, the binding result is on record as “binds”.

B20: DST-001 (peptide)
peptide: NLIEKSIYL
Consider B20, for which the binding entry is “binds”.

B21: PI4KA-001 (peptide)
peptide: AMATESILHFA
In the case of B21, the binding result was “binds”.

B22: DIO2-001 (peptide)
peptide: ALYDSVILL
For B22, the binding entry was “binds”.

B23: ABCA13-001 (peptide)
peptide: ILFEINPKL
Consider B23, for which the binding result is “binds”.

B24: CCNA2-001 (peptide)
peptide: SLIDADPYL
On to B24, for which the binding entry is given as “binds”.

B25: PLEKHA8-001 (peptide)
peptide: AILDTLYEV
As to B25, the binding entry is reported as “binds”.

B26: HSP-002 (peptide)
peptide: SILTIEDGIFEV
With B26, the binding entry is “binds”.

B27: SLC34A2-001 (peptide)
peptide: VLLPVEVATHYL
B27: the binding result was “binds”.

B28: FAP-003 (peptide)
peptide: YVYQNNIYL
Turning to B28, the binding entry was “binds”.

B29: SLI-001 (peptide)
peptide: SLYDNQITTV
Take B29: the binding result is reported as “binds”.

B30: CERC-001 (peptide)
peptide: KLSWDLIYL
B30: the binding result was “binds”.

B31: BNC1-001 (peptide)
peptide: VLFPNLKTV
With B31, the binding entry was “binds”.

B32: WNT5A-001 (peptide)
peptide: AMSSKFFLV
As to B32, the binding result was “binds”.

B33: JUNB-001 (peptide)
peptide: YLPHAPPFA
B33: the binding result was “binds”.

B34: VCAN-002 (peptide)
peptide: ALVDHTPYL
For the molecule B34, the binding result was “binds”.

B35: FZD-001 (peptide)
peptide: VLAPLFVYL
For the molecule B35, the binding result was “binds”.

B36: C11orf24-001 (peptide)
peptide: VVDKTLLLV
Regarding B36, the binding entry is given as “binds”.

B37: MDN1-001 (peptide)
peptide: ALANQKLYSV
Consider B37, for which the binding entry was “binds”.

B38: NCAPD2-001 (peptide)
peptide: SLAGDVALQQL
On to B38, for which the binding entry is on record as “binds”.

B39: ELANE-001 (peptide)
peptide: GLYPDAFAPV
In the case of B39, the binding result is “binds”.

B40: ITGA11-001 (peptide)
peptide: FLHHLEIEL
Turning to B40, the binding entry is listed as “binds”.

B41: IL8-001 (peptide)
peptide: KLAVALLAA
On to B41, for which the binding entry is recorded as “binds”.

B42: SLC3A2-001 (peptide)
peptide: SLLESNKDLLL
As for B42, the binding entry is recorded as “binds”.

B43: KIF26B-001 (peptide)
peptide: TVAEVIQSV
For B43, the binding entry is reported as “binds”.

B44: RCN1-001 (peptide)
peptide: FQYDHEAFL
Turning to B44, the binding result is given as “binds”.

B45: HMMR-001 (peptide)
peptide: KLLEYIEEI
B45: the binding result is “binds”.

B46: ANKS1A-001 (peptide)
peptide: ALYGRLEVV
Take B46: the binding result is “binds”.

B47: IFT81-001 (peptide)
peptide: ALASVIKEL
Turning to B47, the binding result is given as “binds”.

B48: VCAN-001 (peptide)
peptide: TLYPHTSQV
Regarding B48, the binding result is listed as “binds”.

B49: DST-002 (peptide)
peptide: KLDETNNTL
Consider B49, for which the binding result is “binds”.

B50: SNRNP20-001 (peptide)
peptide: GLIEIISNA
Take B50: the binding entry is listed as “binds”.

B51: CDC6-001 (peptide)
peptide: ILQDRLNQV
Consider B51, for which the binding entry is reported as “binds”.

B52: MXRA5-002 (peptide)
peptide: GLTDNIHLV
B52: the binding result is on record as “binds”.

B53: OLFM1-001 (peptide)
peptide: ILMGTELTQV
Consider B53, for which the binding result is given as “binds”.

B54: MAGEF1-001 (peptide)
peptide: ILFPDIIARA
In the case of B54, the binding entry is “binds”.

B55: P2RY6-001 (peptide)
peptide: TVIGFLLPFA
In the case of B55, the binding result is “binds”.

B56: MXRA5-001 (peptide)
peptide: TLSSIKVEV
With B56, the binding entry was “binds”.

B57: ORMDL1-002 (peptide)
peptide: TLTNIIHNL
As for B57, the binding result is “binds”.

B58: COG4-001 (peptide)
peptide: SLVAVELEKV
In the case of B58, the binding result is on record as “binds”.

B59: TLX3-001 (peptide)
peptide: SLAPAGVIRV
Consider B59, for which the binding entry was “binds”.

B60: ACACA-001 (peptide)
peptide: FLIPIYHQV
As for B60, the binding entry is “binds”.

B61: AURKB-001 (peptide)
peptide: RVLPPSALQSV
With B61, the binding result is recorded as “binds”.

B62: CDK4-001 (peptide)
peptide: TLWYRAPEV
On to B62, for which the binding result is recorded as “binds”.

B63: TACC3-001 (peptide)
peptide: KLVEFDFLGA
For B63, the binding entry is given as “binds”.

B64: NEFH-001 (peptide)
peptide: HLLEDIAHV
As to B64, the binding entry was “binds”.

B65: ANKH-001 (peptide)
peptide: SISDVIAQV
In the case of B65, the binding entry is recorded as “binds”.

B66: DPYSL4-001 (peptide)
peptide: NLLAEIHGV
Regarding B66, the binding entry was “binds”.

B67: ATP-001 (peptide)
peptide: SLHFLILYV
As for B67, the binding result is “binds”.

B68: SMYD3-001 (peptide)
peptide: SLIEDLILL
Take B68: the binding entry is reported as “binds”.

B69: SAMSN1-001 (peptide)
peptide: RLLAAENFL
B69: the binding result is given as “binds”.

B70: C12orf44-001 (peptide)
peptide: AMLAVLHTV
As to B70, the binding entry is reported as “binds”.

For the origin of these results see US20170319675A1.
